Measured values taken from publication PMC6833008 (Molecules, 2019).

Assay: peptide synthesis
Settings: whole synthesis, HPLC

Q: Which “purity (crude or final not stated)” value does the source give for FRWWR-NH2 here?
A: 98.79%

Q: Which “purity (crude or final not stated)” value does the source give for RRWQWR-NH2 here?
A: 98.50%

Q: Which “purity (crude or final not stated)” value does the source give for KRWWR-NH2 here?
A: 95.96%

Q: Which “purity (crude or final not stated)” value does the source give for YVAE-NH2 (C-terminal amide (-NH2)) here?
A: 98.34%

Q: Which “purity (crude or final not stated)” value does the source give for YVAM-NH2 (C-terminal amide (-NH2)) here?
A: 98.93%
